Consider one molecule from US20100168025A1 (TEXAS A AND M UNIVERSITY SYSTEM, published 2010).

Amino acid sequences for entries named in this document (tags omitted). A change or cut given only in a name is not applied to a line headed by its entry.
UniProt P08648: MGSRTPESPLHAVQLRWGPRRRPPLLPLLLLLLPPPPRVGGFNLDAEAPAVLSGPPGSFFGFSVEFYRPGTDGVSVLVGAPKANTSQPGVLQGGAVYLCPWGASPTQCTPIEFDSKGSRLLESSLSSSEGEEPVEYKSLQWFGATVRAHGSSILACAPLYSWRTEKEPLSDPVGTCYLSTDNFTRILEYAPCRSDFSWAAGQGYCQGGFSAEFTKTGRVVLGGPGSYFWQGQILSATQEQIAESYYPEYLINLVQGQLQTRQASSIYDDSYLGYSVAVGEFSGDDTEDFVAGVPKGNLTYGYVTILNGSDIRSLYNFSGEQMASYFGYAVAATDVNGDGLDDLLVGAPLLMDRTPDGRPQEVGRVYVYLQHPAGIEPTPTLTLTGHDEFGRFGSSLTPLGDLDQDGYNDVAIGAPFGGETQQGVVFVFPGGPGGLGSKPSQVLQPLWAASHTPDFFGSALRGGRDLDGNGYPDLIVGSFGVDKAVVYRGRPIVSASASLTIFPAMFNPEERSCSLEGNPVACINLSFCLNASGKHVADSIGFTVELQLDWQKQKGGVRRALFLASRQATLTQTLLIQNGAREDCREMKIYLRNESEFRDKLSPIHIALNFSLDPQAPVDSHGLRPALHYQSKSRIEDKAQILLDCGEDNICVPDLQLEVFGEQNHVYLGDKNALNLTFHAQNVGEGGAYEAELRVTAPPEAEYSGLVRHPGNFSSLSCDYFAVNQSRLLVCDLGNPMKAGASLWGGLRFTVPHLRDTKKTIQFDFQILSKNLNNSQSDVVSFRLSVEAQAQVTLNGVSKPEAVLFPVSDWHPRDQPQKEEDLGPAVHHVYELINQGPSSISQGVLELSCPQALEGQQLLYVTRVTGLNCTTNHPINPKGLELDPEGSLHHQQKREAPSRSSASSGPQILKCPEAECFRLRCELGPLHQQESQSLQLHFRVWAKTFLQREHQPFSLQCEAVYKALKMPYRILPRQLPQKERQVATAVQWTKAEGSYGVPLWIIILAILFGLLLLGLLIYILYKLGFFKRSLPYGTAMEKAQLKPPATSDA

No constants are given. Whether binding was seen depends on the method and setting. Some entries that bind do so weakly or less than the wild type.

The target of assay [1] is recombinant α5β1 integrin (immobilized, ELISA) (UniProt P08648). The assay can be described thus: ELISA, DV on immobilized α5β1 integrin (FIG. 13B). On the technique in general: ELISA stands for enzyme-linked immunosorbent assay.
For assay [2] the target is unchanged. The assay can be described thus: summary sentence of Example 25 (ELISA, adhesion, migration, tube assays).

B1: perlecan Domain V (recombinant, C-terminal 6×His tag) (ligand)
chain: EIKITFRPDSADGMLLYNGQKRVPGSPTNLANRQPDFISFGLVGGRPEFRFDAGSGMATIRHPTPLALGHFHTVTLLRSLTQGSLIVGDLAPVNGTSQGKFQGLDLNEELYLGGYPDYGAIPKAGLSSGFIGCVRELRIQGEEIVFHDLNLTAHGISHCPTCRDRPCQNGGQCHDSESSSYVCVCPAGFTGSRCEHSQALHCHPEACGPDATCVNRPDGRGYTCRCHLGRSGLRCEEGVTVTTPSLSGAGSYLALPALTNTHHELRLDVEFKPLAPDGVLLFSGGKSGPVEDFVSLAMVGGHLEFRYELGSGLAVLRSAEPLALGRWHRVSAERLNKDGSLRVNGGRPVLRSSPGKSQGLNLHTLLYLGGVEPSVPLSPATNMSAHFRGCVGEVSVNGKRLDLTYSFLGSQGIGQCYDSSPCERQPCQHGATCMPAGEYEFQCLCRDGFKGDLCEHEENPCQLREPCLHGGTCQGTRCLCLPGFSGPRCQQGSGHGIAESDWHLEGSGGNDAPGQYGAYFHDDGFLAFPGHVFSRSLPEVPETIELEVRTSTASGLLLWQGVEVGEAGQGKDFISLGLQDGHLVFRYQLGSGEARLVSEDPINDGEWHRVTALREGRRGSIQVDGEELVSGRSPGPNVAVNAKGSVYIGGAPDVATLTGGRFSSGITGCVKNLVLHSARPGAPPPQPLDLQHRAQAGANTRPCPSHHHHHH
notes: domain: domain V; Secreted from transfected 293FT cells and purified on Ni beads; also called DV; endorepellin
B1: the binding entry in assay [1] and in assay [2] was “binds” throughout.
